From patent JP2018038398A come the findings set out here.

Protein sequences, listed by entry. Tags and fused reporters are not part of them. Residues count along the entry.
UniProt P10646, residues 29-304: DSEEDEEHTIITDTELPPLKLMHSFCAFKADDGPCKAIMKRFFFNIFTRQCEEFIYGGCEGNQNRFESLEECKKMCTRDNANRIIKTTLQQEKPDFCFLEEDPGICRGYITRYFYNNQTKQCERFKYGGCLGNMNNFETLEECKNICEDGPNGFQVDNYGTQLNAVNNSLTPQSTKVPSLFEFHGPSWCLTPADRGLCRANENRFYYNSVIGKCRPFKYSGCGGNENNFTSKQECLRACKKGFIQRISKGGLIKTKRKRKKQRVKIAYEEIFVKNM

Where a chain is given by its changes, count along the chain named. These are yes or no findings as the source states them, for the method shown. Some results given as binding are weak or reduced against the parent protein; the word gives no strength.

The chains are these.
B1: TP-4G8 (Fab, V domains shown)
VH: QVQLVESGGGLVQPGGSLRLSCAASGFTFSTYAMHWVRQAPGKGLEWVSTISGYGSFTYYADSVKGRFTISRDNSKNTLYLQMNSLRAEDTAVYYCARNGRKYGQMDNWGQGTLVTVSS
VL: DIELTQPPSVSVAPGQTARISCSGDKLGSKSVHWYQQKPGQAPVLVIYRDTDRPSGIPERFSGSNSGNTATLTISGTQAEDEADYYCQTYDYILNVFGGGTKLTVLG
B2: TP-4E8 (Fab, V domains shown)
VH: QVQLVESGGGLVQPGGSLRLSCAASGFTFNDYAMSWVRQAPGKGLEWVSLIESVSSSTYYADSVKGRFTISRDNSKNTLYLQMNSLRAEDTAVYYCARTIGVLWDDVWGQGTLVTVSS
VL: DIELTQPPSVSVAPGQTARISCSGDALGSKYVSWYQQKPGQAPVLVIYGDNKRPSGIPERFSGSNSGNTATLTISGTQAEDEADYYCQSYTYSLNQVFGGGTKLTVLG
B3: TP-3F2 (Fab, V domains shown)
VH: QVQLVESGGGLVQPGGSLRLSCAASGFTFSSYSMHWVRQAPGKGLEWVSGISYSSSFTYYADSVKGRFTISRDNSKNTLYLQMNSLRAEDTAVYYCARALGGGVDYWGQGTLVTVSS
VL: DIELTQPPSVSVAPGQTARISCSGDNLPSKSVYWYQQKPGQAPVLVIYGDNNRPSGIPERFSGSNSGNTATLTISGTQAEDEADYYCQSWTSRPMVVFGGGTKLTVLG
B4: TP-4H8 (Fab, V domains shown)
VH: QVQLVESGGGLVQPGGSLRLSCAASGFTFSDHAMHWVRQAPGKGLEWVSVIEYSGSKTNYADSVKGRFTISRDNSKNTLYLQMNSLRAEDTAVYYCARGDYYPYLVFAIWGQGTLVTVSS
VL: DIELTQPPSVSVAPGQTARISCSGDSIGKKYVHWYQQKPGQAPVLVIYGDNNRPSGIPERFSGSNSGNTATLTISGTQAEDEADYYCSTADSVITYKNVFGGGTKLTVLG
B5: TP-3H2 (Fab, V domains shown)
VH: QVQLVESGGGLVQPGGSLRLSCAASGFTFNSYYMSWVRQAPGKGLEWVSNISSSGSNTNYADSVKGRFTISRDNSKNTLYLQMNSLRAEDTAVYYCARVHYGFDFWGQGTLVTVSS
VL: DIELTQPPSVSVAPGQTARISCSGDKLGKYYAYWYQQKPGQAPVLVIYGDSKRPSGIPERFSGSNSGNTATLTISGTQAEDEADYYCSSAAFGSTVFGGGTKLTVLG
B6: TP-4A9 (Fab, V domains shown)
VH: QVQLVESGGGLVQPGGSLRLSCAASGFTFSSYGMSWVRQAPGKGLEWVSLISGVSSSTYYADSVKGRFTISRDNSKNTLYLQMNSLRAEDTAVYYCARSYLGYFDVWGQGTLVTVSS
VL: B5 VL with K26A, Y33S, S51N, S88Q, A90Y, A91T, F92T, G93R, T95L
B7: TP-4A7 (Fab, V domains shown)
VH: QVQLVESGGGLVQPGGSLRLSCAASGFTFRNYAMNWVRQAPGKGLEWVSVISGSSSYTYYADSVKGRFTISRDNSKNTLYLQMNSLRAEDTAVYYCARADLPYMVFDYWGQGTLVTVSS
VL: DIELTQPPSVSVAPGQTARISCSGDALGSKFAHWYQQKPGQAPVLVIYDDSERPSGIPERFSGSNSGNTATLTISGTQAEDEADYYCQAYDSGLLYVFGGGTKLTVLG
B8: TP-2B4 (Fab, V domains shown)
VH: QVQLVESGGGLVQPGGSLRLSCAASGFTFSNYSMTWVRQAPGKGLEWVSGISYNGSNTYYADSVKGRFTISRDNSKNTLYLQMNSLRAEDTAVYYCARIYYMNLLAGWGQGTLVTVSS
VL: DIELTQPPSVSVAPGQTARISCSGDALGTYYAYWYQQKPGQAPVLVIYGDMNRPSGIPERFSGSNSGNTATLTISGTQAEDEADYYCQSYDAGVKPAVFGGGTKLTVLG
B9: TP-2B1 (Fab, V domains shown)
VH: QVQLVESGGGLVQPGGSLRLSCAASGFTFSSYSMSWVRQASGKGLEWVSSIKGSGSNTYYADSVKGRFTISRDNSKNTLYLQMNSLRAEDTAVYYCARNGGLIDVWGQGTLVTVSS
VL: DIELTQPPSVSVAPGQTARISCSGDNLGNKYAHWYQQKPGQAPVLVIYYDNKRPSGIPERFSGSNSGNTATLTISGTQAEDEADYYCQSWTPGSNTMVFGGGTRLTVLG
B10: TP-3G1 (Fab, V domains shown)
VH: QVQLQQSGPGLVKPSQTLSLTCAISGDSVSSNSGGWGWIRQSPGRGLEWLGLIYYRSKWYNAYAVSVKSRITINPDTSKNQFSLQLNSVTPEDTAVYYCARYLGSNFYVYSDVWGQGTLVTVSS
VL: DIQMTQSPSSLSASVGDRVTITCRASQGISSYLHWYQQKPGKAPKLLIYGASTLQSGVPSRFSGSGSGTDFTLTISSLQPEDFATYYCQQQNGYPFTFGQGTKVEIKR
B11: TP-3G3 (Fab, V domains shown)
VH: QVQLVESGGGLVQPGGSLRLSCAASGFTFSSYSMSWVRQAPGKGLEWVSSISSSSSNTYYGDSVKGRFTISRDNSKNTLYLQMNSLRAEDTAVYYCARMHYKGMDIWGQGTLVTVSS
VL: DIQMTQSPSSLSASVGDRVTITCRASQNIHSHLNWYQQKPGKAPKLLIYDASSLQSGVPSRFSGSGSGTDFTLTISSLQPEDFAVYYCQQYYDYPLTFGQGTKVEIKR
B12: TP-2B8 (Fab, V domains shown)
VH: QVQLVQSGAEVKKPGASVKVSCKASGYTFTGNSMHWVRQAPGQGLEWMGTIFPYDGTTKYAQKFQGRVTMTRDTSISTAYMELSSLRSEDTAVYYCARGVHSYFDYWGQGTLVTVSS
VL: DIELTQPPSVSVAPGQTARISCSGDNLRGYYASWYQQKPGQAPVLVIYEDNNRPSGIPERFSGSNSGNTATLTISGTQAEDEADYYCQSWDSPYVHVFGGGTKLTVLG
B13: TP-3F1 (Fab, V domains shown)
VH: QVQLVQSGAEVKKPGESLKISCKGSGYSFTDYWIGWVRQMPGKGLEWMGIIQPSDSDTNYSPSFQGQVTISADKSISTAYLQWSSLKASDTAMYYCARFMWWGKYDSGFDVWGQGTLVTVSS
VL: DIELTQPPSVSVAPGQTARISCSGDNIGSYFASWYQQKPGQAPVLVIYDDSNRPSGIPERFSGSNSGNTATLTISGTQAEDEADYYCEGSNVFGGGTKLTVLG
B14: TP-2B3 (Fab, V domains shown)
VH: QVQLQQSGPGLVKPSQTLSLTCAISGDSVSSNSAAWGWIRQSPGRGLEWLGMIYYRSKWYNSYAVSVKSRITINPDTSKNQFSLQLNSVTPEDTAVYYCARTMSKYGGPGMDVWGQGTLVTVSS
VL: DIVLTQSPATLSLSPGERATLSCRASQNIGSNYLAWYQQKPGQAPRLLIYGASTRATGVPARFNGSGSGTDFTLTISSLEPEDFAVYYCQQLNSIPVTFGQGTKVEIKR
B15: TP-2A10 (Fab, V domains shown)
VH: QVQLVESGGGLVQPGGSLRLSCAASGFTFTSYSMNWVRQAPGKGLEWVSAISYTGSNTHYADSVKGRFTISRDNSKNTLYLQMNSLRAEDTAVYYCARAFLGYKESYFDIWGQGTLVTVSS
VL: DIELTQPPSVSVAPGQTARISCSGDKLGKKYVHWYQQKPGQAPVLVIYGDDKRPSGIPERFSGSNSGNTATLTISGTQAEDEADYYCQAWGSISRFVFGGGTKLTVLG

This experiment addresses ヒトTFPI(American Diagnostica) (human) (UniProt P10646). Put plainly: ELISA screen of Fab lysates on coated human TFPI.
Take B1: the binding result is on record as “binds”.
Next, B2: “binds”; B3: “binds”; B4: “binds”.
Consider B5, for which the binding entry is “binds”.
Next, B6: “binds”; B7: “binds”.
Next, B8: “binds”.
Consider B9, for which the binding entry is listed as “binds”.
Next, B10: “binds”; B11: “binds”.
As for B12, the binding result is “binds”.
For the molecule B13, the binding result is reported as “binds”.
For B14, the binding result is given as “binds”.
As for B15, the binding entry is listed as “binds”.
